Test results taken from publication PMC6791651.
Results are given in words; binding and its absence hold for the method and conditions named. In cells and extracts the contact can be indirect. Some results given as binding are weak or reduced against the parent protein; the word gives no strength. Tags and fused reporters may be left off the sequences shown.

Assays:
myc-TIN2L (human) [1] = target: T1, myc-TIN2L (human) (UniProt Q9BSI4); assay: co-IP; anti-c-myc-agarose beads pull down myc-TIN2 from CHAPS lysate of TPP1/POT1/TERT cells transfected with myc-TIN2; 2 h at 4°C, 4 washes with CHAPS buffer; FLAG Western blot
T1 sequence: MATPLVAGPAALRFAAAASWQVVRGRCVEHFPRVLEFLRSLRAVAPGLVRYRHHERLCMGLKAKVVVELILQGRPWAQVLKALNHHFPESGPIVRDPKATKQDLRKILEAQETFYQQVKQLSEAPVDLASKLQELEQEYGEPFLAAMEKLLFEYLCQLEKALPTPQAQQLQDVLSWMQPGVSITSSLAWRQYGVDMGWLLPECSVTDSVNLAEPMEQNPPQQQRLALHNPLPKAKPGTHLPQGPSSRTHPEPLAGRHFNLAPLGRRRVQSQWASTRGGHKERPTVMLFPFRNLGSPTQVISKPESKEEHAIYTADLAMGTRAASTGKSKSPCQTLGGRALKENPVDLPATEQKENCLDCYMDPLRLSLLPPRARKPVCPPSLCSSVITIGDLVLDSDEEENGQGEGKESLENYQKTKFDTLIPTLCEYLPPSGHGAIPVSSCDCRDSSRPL

myc-TIN2L K280E (human) = target: T2, myc-TIN2L K280E (human) (UniProt Q9BSI4); assay: as above
T2 sequence: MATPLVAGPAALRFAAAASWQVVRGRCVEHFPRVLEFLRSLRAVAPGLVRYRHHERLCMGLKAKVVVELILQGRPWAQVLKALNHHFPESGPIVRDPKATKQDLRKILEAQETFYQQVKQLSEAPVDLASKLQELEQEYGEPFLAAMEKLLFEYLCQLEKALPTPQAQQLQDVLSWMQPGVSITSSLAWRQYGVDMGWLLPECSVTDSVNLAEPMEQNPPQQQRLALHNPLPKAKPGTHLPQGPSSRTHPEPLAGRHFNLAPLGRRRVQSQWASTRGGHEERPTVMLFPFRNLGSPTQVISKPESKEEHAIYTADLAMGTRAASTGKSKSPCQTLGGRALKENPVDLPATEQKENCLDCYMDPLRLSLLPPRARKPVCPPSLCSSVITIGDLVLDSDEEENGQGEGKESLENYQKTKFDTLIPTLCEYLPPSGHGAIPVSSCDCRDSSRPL

myc-TIN2M (human) [2] = target: T3, myc-TIN2M (human) (UniProt Q9BSI4); assay: as above
T3 sequence: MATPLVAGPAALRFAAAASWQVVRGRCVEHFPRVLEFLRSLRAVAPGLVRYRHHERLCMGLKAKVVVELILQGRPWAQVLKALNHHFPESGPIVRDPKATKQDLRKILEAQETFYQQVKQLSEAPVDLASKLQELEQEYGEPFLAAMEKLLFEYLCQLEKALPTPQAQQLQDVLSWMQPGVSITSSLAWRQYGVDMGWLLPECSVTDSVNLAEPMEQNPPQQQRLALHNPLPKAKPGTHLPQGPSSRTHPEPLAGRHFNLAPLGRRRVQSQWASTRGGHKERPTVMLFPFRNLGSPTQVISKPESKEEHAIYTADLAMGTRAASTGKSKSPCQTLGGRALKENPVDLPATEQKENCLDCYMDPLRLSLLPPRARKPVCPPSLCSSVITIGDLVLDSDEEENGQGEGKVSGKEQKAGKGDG

myc-TIN2M K280E (human) = target: T4, myc-TIN2M K280E (human) (UniProt Q9BSI4); assay: as above
T4 sequence: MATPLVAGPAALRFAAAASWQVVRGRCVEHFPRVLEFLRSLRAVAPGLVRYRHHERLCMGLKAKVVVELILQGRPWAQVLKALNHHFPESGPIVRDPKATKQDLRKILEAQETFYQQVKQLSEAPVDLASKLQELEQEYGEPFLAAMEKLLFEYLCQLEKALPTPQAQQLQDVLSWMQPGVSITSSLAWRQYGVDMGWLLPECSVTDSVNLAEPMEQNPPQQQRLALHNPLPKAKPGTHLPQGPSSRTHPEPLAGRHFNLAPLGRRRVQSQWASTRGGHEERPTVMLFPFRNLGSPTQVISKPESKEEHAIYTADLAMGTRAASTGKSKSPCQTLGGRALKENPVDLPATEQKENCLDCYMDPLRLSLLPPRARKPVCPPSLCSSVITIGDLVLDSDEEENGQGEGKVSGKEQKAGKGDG

myc-TIN2S (human) [3] = target: T5, myc-TIN2S (human) (UniProt Q9BSI4); assay: as above
T5 sequence: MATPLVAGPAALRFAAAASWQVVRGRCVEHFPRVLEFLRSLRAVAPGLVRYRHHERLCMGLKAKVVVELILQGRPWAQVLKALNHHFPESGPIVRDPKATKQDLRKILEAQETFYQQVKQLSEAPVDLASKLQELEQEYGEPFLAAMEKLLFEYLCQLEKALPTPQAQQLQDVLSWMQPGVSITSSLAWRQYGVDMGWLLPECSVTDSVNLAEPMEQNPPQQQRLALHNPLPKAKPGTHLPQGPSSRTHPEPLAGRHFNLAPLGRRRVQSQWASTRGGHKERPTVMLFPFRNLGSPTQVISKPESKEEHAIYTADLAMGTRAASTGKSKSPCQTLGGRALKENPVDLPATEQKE

myc-TIN2S K280E (human) = target: T6, myc-TIN2S K280E (human) (UniProt Q9BSI4); assay: as above
T6 sequence: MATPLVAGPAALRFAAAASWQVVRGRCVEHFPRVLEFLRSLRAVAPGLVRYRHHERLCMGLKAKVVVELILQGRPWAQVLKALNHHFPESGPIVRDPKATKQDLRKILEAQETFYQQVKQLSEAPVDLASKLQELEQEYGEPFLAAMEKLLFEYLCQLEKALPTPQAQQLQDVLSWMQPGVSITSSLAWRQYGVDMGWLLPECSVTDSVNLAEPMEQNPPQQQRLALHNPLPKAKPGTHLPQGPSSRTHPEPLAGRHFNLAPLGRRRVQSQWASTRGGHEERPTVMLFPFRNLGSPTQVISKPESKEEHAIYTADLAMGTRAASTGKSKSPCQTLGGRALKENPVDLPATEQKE

myc-TIN2L (human) [4] = target: T1, myc-TIN2L (human); assay: co-IP; anti-c-myc-agarose beads pull down myc-TIN2 from CHAPS lysate of TPP1^TEL/POT1/TERT cells transfected with myc-TIN2; 2 h at 4°C, 4 washes with CHAPS buffer; FLAG Western blot
myc-TIN2M (human) [5] = target: T3, myc-TIN2M (human); assay: as above
myc-TIN2S (human) [6] = target: T5, myc-TIN2S (human); assay: as above
FLAG-POT1 (human) = target: T7, FLAG-POT1 (human) (UniProt Q9NUX5); assay: co-IP; reciprocal pulldown of FLAG-TPP1/POT1/TERT with anti-FLAG M2 affinity gel from CHAPS lysate; all three FLAG proteins captured at once; data not shown
T7 sequence: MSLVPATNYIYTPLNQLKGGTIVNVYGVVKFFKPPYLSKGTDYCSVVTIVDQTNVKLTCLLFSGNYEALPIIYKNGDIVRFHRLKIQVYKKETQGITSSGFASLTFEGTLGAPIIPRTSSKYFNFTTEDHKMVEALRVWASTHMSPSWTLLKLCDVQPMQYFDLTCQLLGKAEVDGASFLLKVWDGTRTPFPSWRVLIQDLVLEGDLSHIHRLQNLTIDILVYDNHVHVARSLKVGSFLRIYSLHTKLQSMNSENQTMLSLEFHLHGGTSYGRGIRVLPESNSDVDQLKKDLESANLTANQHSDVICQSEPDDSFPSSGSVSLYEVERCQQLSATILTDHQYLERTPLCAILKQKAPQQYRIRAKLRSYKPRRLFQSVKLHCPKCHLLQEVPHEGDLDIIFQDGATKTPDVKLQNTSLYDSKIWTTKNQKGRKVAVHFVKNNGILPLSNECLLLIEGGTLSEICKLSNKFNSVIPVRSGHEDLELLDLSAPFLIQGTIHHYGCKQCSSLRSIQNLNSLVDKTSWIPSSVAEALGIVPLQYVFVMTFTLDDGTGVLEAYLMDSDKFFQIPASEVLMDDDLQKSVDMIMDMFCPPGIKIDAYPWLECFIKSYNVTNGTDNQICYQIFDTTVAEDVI

Measured: binding

B1: FLAG-POT1 (protein, UniProt Q9NUX5 1-634)
chain: MSLVPATNYIYTPLNQLKGGTIVNVYGVVKFFKPPYLSKGTDYCSVVTIVDQTNVKLTCLLFSGNYEALPIIYKNGDIVRFHRLKIQVYKKETQGITSSGFASLTFEGTLGAPIIPRTSSKYFNFTTEDHKMVEALRVWASTHMSPSWTLLKLCDVQPMQYFDLTCQLLGKAEVDGASFLLKVWDGTRTPFPSWRVLIQDLVLEGDLSHIHRLQNLTIDILVYDNHVHVARSLKVGSFLRIYSLHTKLQSMNSENQTMLSLEFHLHGGTSYGRGIRVLPESNSDVDQLKKDLESANLTANQHSDVICQSEPDDSFPSSGSVSLYEVERCQQLSATILTDHQYLERTPLCAILKQKAPQQYRIRAKLRSYKPRRLFQSVKLHCPKCHLLQEVPHEGDLDIIFQDGATKTPDVKLQNTSLYDSKIWTTKNQKGRKVAVHFVKNNGILPLSNECLLLIEGGTLSEICKLSNKFNSVIPVRSGHEDLELLDLSAPFLIQGTIHHYGCKQCSSLRSIQNLNSLVDKTSWIPSSVAEALGIVPLQYVFVMTFTLDDGTGVLEAYLMDSDKFFQIPASEVLMDDDLQKSVDMIMDMFCPPGIKIDAYPWLECFIKSYNVTNGTDNQICYQIFDTTVAEDVI
not listed: FLAG-POT1 (human)
binds: all other assays above

B2: myc-TIN2S (protein, UniProt Q9BSI4-1 1-354)
chain: MATPLVAGPAALRFAAAASWQVVRGRCVEHFPRVLEFLRSLRAVAPGLVRYRHHERLCMGLKAKVVVELILQGRPWAQVLKALNHHFPESGPIVRDPKATKQDLRKILEAQETFYQQVKQLSEAPVDLASKLQELEQEYGEPFLAAMEKLLFEYLCQLEKALPTPQAQQLQDVLSWMQPGVSITSSLAWRQYGVDMGWLLPECSVTDSVNLAEPMEQNPPQQQRLALHNPLPKAKPGTHLPQGPSSRTHPEPLAGRHFNLAPLGRRRVQSQWASTRGGHKERPTVMLFPFRNLGSPTQVISKPESKEEHAIYTADLAMGTRAASTGKSKSPCQTLGGRALKENPVDLPATEQKE
binds: FLAG-POT1 (human)

B3: myc-TIN2M (protein, UniProt Q9BSI4 1-407)
chain: MATPLVAGPAALRFAAAASWQVVRGRCVEHFPRVLEFLRSLRAVAPGLVRYRHHERLCMGLKAKVVVELILQGRPWAQVLKALNHHFPESGPIVRDPKATKQDLRKILEAQETFYQQVKQLSEAPVDLASKLQELEQEYGEPFLAAMEKLLFEYLCQLEKALPTPQAQQLQDVLSWMQPGVSITSSLAWRQYGVDMGWLLPECSVTDSVNLAEPMEQNPPQQQRLALHNPLPKAKPGTHLPQGPSSRTHPEPLAGRHFNLAPLGRRRVQSQWASTRGGHKERPTVMLFPFRNLGSPTQVISKPESKEEHAIYTADLAMGTRAASTGKSKSPCQTLGGRALKENPVDLPATEQKENCLDCYMDPLRLSLLPPRARKPVCPPSLCSSVITIGDLVLDSDEEENGQGEGKVSGKEQKAGKGDG
binds: FLAG-POT1 (human)

B4: myc-TIN2L (protein, UniProt Q9BSI4-1 1-451)
chain: MATPLVAGPAALRFAAAASWQVVRGRCVEHFPRVLEFLRSLRAVAPGLVRYRHHERLCMGLKAKVVVELILQGRPWAQVLKALNHHFPESGPIVRDPKATKQDLRKILEAQETFYQQVKQLSEAPVDLASKLQELEQEYGEPFLAAMEKLLFEYLCQLEKALPTPQAQQLQDVLSWMQPGVSITSSLAWRQYGVDMGWLLPECSVTDSVNLAEPMEQNPPQQQRLALHNPLPKAKPGTHLPQGPSSRTHPEPLAGRHFNLAPLGRRRVQSQWASTRGGHKERPTVMLFPFRNLGSPTQVISKPESKEEHAIYTADLAMGTRAASTGKSKSPCQTLGGRALKENPVDLPATEQKENCLDCYMDPLRLSLLPPRARKPVCPPSLCSSVITIGDLVLDSDEEENGQGEGKESLENYQKTKFDTLIPTLCEYLPPSGHGAIPVSSCDCRDSSRPL
binds: FLAG-POT1 (human)
